Experiment: FRET and time-resolved fluorescence, SP1 with homologous Aβ sequence
Assay type: binding
Conditions: for kf: kf = Φ/τ; for knr: knr = (1-Φ)/τ; for quantum yield Φf / fluorescence lifetime τ: λex 290 nm, 20 µM; for fluorescence lifetime τ: PBS pH 7.4, 3% DMSO

Substance	kf (λem 495 nm)	knr (λem 495 nm)	quantum yield Φf (λem 495 nm)	fluorescence lifetime τ (λem 495 nm)	kf (λem 355 nm)	knr (λem 355 nm)	quantum yield Φf (λem 355 nm)	fluorescence lifetime τ (λem 355 nm)
GLVFFAX-NH2 [LP1B, fluorescently labeled homologous Aβ fragment containing dansyl, FRET acceptor]	0.005	0.241	0.021	4.06 ns				
GLVFFAW-NH2 [LP1A, fluorescently labeled homologous Aβ fragment containing tryptophan, FRET donor]					0.126	0.399	0.241	1.90 ns

Source: publication PMC8179358, “An explicitly designed paratope of amyloid-β prevents neuronal apoptosis in vitro and hippocampal damage in rat brain” (Chemical Science, 2020)
